Results are given in words; binding and its absence hold for the method and conditions named. Binding seen in cells or lysates may run through a third protein. A result given as binding can be weak or reduced; the word gives no strength.

By UniProt entry, the sequences of proteins in these tests, tags left out. Where a name states a change or a piece, a line headed by the entry shows the natural chain unless it says otherwise.
UniProt Q01159: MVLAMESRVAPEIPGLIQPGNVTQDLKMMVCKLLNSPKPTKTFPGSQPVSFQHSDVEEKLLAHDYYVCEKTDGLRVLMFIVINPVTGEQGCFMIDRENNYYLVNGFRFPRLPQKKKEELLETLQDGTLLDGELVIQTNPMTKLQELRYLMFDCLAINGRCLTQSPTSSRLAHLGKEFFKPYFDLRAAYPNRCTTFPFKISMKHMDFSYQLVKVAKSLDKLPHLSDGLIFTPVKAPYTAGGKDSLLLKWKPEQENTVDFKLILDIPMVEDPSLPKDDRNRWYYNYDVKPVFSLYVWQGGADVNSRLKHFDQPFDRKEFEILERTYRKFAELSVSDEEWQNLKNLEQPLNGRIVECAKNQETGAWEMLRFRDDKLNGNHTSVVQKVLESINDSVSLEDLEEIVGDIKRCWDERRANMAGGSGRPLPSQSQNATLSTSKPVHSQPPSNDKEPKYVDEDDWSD

Drawing on PMC3813497, this text covers binding for 2 molecules.

For this assay, the target named is GST-Ceg1p OB domain (S. cerevisiae) (UniProt Q01159). Put plainly: pull-down; GST or GST-Ceg1p OB domain as bait; Cet1p forms translated in rabbit reticulocyte lysate with [35S]-methionine, lysate nuclease-treated; TNE buffer (20 mM Tris-HCl pH 7.5, 150 mM NaCl, 2 mM EDTA, 1% NP-40); SDS-PAGE, imaging plate; only the target purified.

B1: Cet1(4A)p (protein, UniProt O13297 1-549)
chain: MSYTDNPPQTKRALSLDDLVNHDENEKVKLQKLSEAANGSRPFAENLESDINQTETGQAAPIDNYKESTGHGSHSQKPKSRKSSNDDEETDTDDEMGASGEINFDSEMDFDYDKQHRNLLSNGSPPMNDGSDANAKLEKPSDDSIHQNSKSDEEQRIPKQGNEGNIASNYITQVPLQKQKQTEKKIAGNAVGSVVKKEEEANAAVDNIFEEKATLQSKKNNIKRDLEVLNEISASSKPSKYRNVPIAAAAAKPTIKALQSINVKDLKIDPSFLNIIPDDDLTKSVQDWVYATIYSIAPELRSFIELEMKFGVIIDAKGPDRVNPPVSSQCVFTELDAHLTPNIDASLFKELSKYIRGISEVTENTGKFSIIESQTRDSVYRVGLSTQRPRFLRMSTDIKTGRVGQFIEKRHVAQLLLYSPKDSYDVKISLNLELPVPDNDPPEKYKSQSPISERTKDRVSYIHNDSCTRIDITKVENHNQNSKSRQSETTHEVELEINTPALLNAFDNITNDSKEYASLIRTFLNNGTIIRRKLSSLSYEIFEGSKKVM
modifications: [35S]-methionine label
As to B1, the binding result was “no binding”.

B2: Cet1(228–549)p (domain or fragment, UniProt O13297 228-549)
chain: VLNEISASSKPSKYRNVPIWAQKWKPTIKALQSINVKDLKIDPSFLNIIPDDDLTKSVQDWVYATIYSIAPELRSFIELEMKFGVIIDAKGPDRVNPPVSSQCVFTELDAHLTPNIDASLFKELSKYIRGISEVTENTGKFSIIESQTRDSVYRVGLSTQRPRFLRMSTDIKTGRVGQFIEKRHVAQLLLYSPKDSYDVKISLNLELPVPDNDPPEKYKSQSPISERTKDRVSYIHNDSCTRIDITKVENHNQNSKSRQSETTHEVELEINTPALLNAFDNITNDSKEYASLIRTFLNNGTIIRRKLSSLSYEIFEGSKKVM
modifications: [35S]-methionine label
On to B2, for which the binding result is given as “binds”.
